About 760 (0.19%) of roughly 390,000 compounds were called active. The inconclusive results got no clear call from the source; some entries with a clear call stand among them for comparison. The call rests on the fitted dose curve; in most records, active means well fitted inhibition curve with a large enough effect; inconclusive means small, poorly fitted or top-dose-only effect; inactive means flat fitted curve, though single readings scatter. Where the call is inconclusive, the potency comes from a doubtful curve fit.
experiment: qHTS for Inhibitors of Vif-A3F Interactions: qHTS; conditions: HeLa A3F-eYFP + Vif (tagged APOBEC3F with the HIV-1 protein that degrades it), YFP fluorescence increase; series mostly up to 46.1 µM; further: nearly all actives have a fitted effect of over 65% in size
From the text: The recent discovery and characterization of host restriction factors, which provide a potent defense to invading retroviruses, has provided new targets for antiviral drug development. APOBEC3G (A3G) and APOBEC3F (A3F) are potent cytidine deaminases that block HIV-1 replication; HIV-1 expresses the Vif protein, which counteracts A3G and A3F by binding to them and inducing their proteasomal degradation. The Vif-A3G and Vif-A3F interactions provide two potential targets for development of small molecules which can interfere with the ability of Vif to degrade A3G or A3F. […] To identify inhibitors that can interfere with Vif mediated degradation of A3G and A3F, we have developed Hela cell lines that stably express A3G or A3F tagged with eYFP at the C-terminal end (A3G-eYFP or A3F-eYFP, respectively) and Vif. In the absence of an inhibitor, Vif induces degradation of A3G-eYFP and A3F-eYFP, and the cells are not fluorescent. In the presence of an inhibitor, it is expected that Vif will be unable to degrade A3G-eYFP and/or A3F-eYFP, resulting in an increase in yellow fluorescence. In this assays Vif A3F was screened against the Molecular Library Small Molecule Repository (MLSMR). NIH Chemical Genomics Center [NCGC] NIH Molecular Libraries Probe Centers Network [MLPCN] MLPCN Grant: MH093245 Assay Submitter (PI): Vinay Pathak, National Cancer Institute
5 uL of 700 cells/well of A3F-YFP cells are dispensed into black, clear bottom plates. The plates are incubated overnight at 37 deg C. 23 nL of compounds are added by pintool. The plates are incubated overnight at 37 deg C and then read on the TTP Acumen (Ex 488/ Em 500-530).
Potency means the concentration at half of the fitted maximal effect.

| Structure (SMILES) | Potency |
| --- | --- |
| O=C(O)Cc1sc(N/N=C\c2ccncc2)nc1-c1ccccc1 | inconclusive: 20 µM [inhibitor, partial curve, poor fit] |
| Cc1ccc(C)c(NC(=O)C(Sc2cccc[n+]2[O-])c2ccccc2)c1 (configuration not stated) | inconclusive: 0.355 µM [inhibitor, full curve, poor fit] |
| COc1ccc2[nH]cc(/C=C/c3cc[n+](C)cc3)c2c1 | active: 12.6 µM |
| Cc1ccc(NC(=O)C(C)c2cccc(C(=O)c3ccccc3)c2)cc1O (configuration not stated) | inconclusive: 35.5 µM [inhibitor, single point] |
| COc1ccc(CC(=O)NNc2ncnc3c2cnn3-c2ccc(C)cc2)cc1 | inactive |
| CCOC(=O)c1c(N)n(-c2cccc(C)c2C)c2nc3ccccc3nc12 | inactive |
| Cc1cccc(/N=C/c2sc3ccccc3c2O)n1 | inconclusive: 25.1 µM [inhibitor, single point] |
| O=[N+]([O-])c1ccc(/C=C/c2nc3ccc([N+](=O)[O-])cc3[nH]2)cc1 | inconclusive: 11.2 µM [inhibitor, single point] |
| CCN(c1ccccc1)S(=O)(=O)c1ccc(N2CCN(c3ccc(O)cc3)CC2)nc1 | inactive |
| Cc1nc(/C=C\C(=O)O)c2cc(C)oc2n1 | inactive |
| CCCCC1=CC2=CC(=O)C(C)(OC(=O)CC)C(=O)C2=CN1CC(C)C (configuration not stated) | inactive |
| Cc1cc(C)c2oc(-c3ccc(C)c(NC(=S)NC(=O)c4cccs4)c3)nc2c1 | inactive |
| COC(=O)c1nc(NC(=O)c2cc(OC)c(OC)c(OC)c2)n[nH]1 | inconclusive: 35.5 µM [inhibitor, single point] |
| O=C(CSc1nc(-c2cccs2)nc2cc(=O)[nH]n12)Nc1ccccc1Cl | inconclusive: 22.4 µM [inhibitor, single point] |
| COc1cc(C(C#N)N2CCC(c3ccccc3)=N2)ccc1O (configuration not stated) | inactive |
| Cc1ccc(C)c(N2CCN(C(=O)CCS(=O)(=O)c3ccc4c(c3)CCN4C(=O)C3CC3)CC2)c1 | inactive |
| CSc1ccc(CCNC(=O)c2ccc(-n3c(C)cc4c3CCCC4)cc2)cc1 | inconclusive: 3.55 µM [inhibitor, single point] |
| COc1ccc(NC(=O)Nc2c(C)noc2-c2ccccc2)cc1 | inactive |
| Cc1ccc(N2C(=O)CS(=O)C(c3ccccc3)C2=O)cc1C (configuration not stated) | inconclusive: 35.5 µM [inhibitor, single point] |
| O=C(Nc1nc(-c2ccccn2)cs1)c1cc(Cl)ccc1[N+](=O)[O-] | inconclusive: 15.8 µM [inhibitor, single point] |
| Cc1ccc(NC(=O)c2cc(N3C(=O)CCC3=O)ccc2N2CCOCC2)cc1 | inactive |
| C=CCn1c(CCc2ccc(OC(C)C)cc2)n[nH]c1=S | inconclusive: 35.5 µM [inhibitor, single point] |
| COCc1nnc(NC(=O)c2ccc(S(=O)(=O)N(C)Cc3ccccc3)cc2)o1 | inconclusive: 35.5 µM [inhibitor, single point] |
| Oc1cccc(C(Nc2nccs2)c2ccc3cccnc3c2O)c1 (configuration not stated) | inconclusive: 35.5 µM [inhibitor, single point] |

Three compounds drawn at random from those above:

| Structure (SMILES) | Potency |
| --- | --- |
| C=CCn1c(CCc2ccc(OC(C)C)cc2)n[nH]c1=S | inconclusive: 35.5 µM [inhibitor, single point] |
| O=C(O)Cc1sc(N/N=C\c2ccncc2)nc1-c1ccccc1 | inconclusive: 20 µM [inhibitor, partial curve, poor fit] |
| Cc1ccc(C)c(NC(=O)C(Sc2cccc[n+]2[O-])c2ccccc2)c1 (configuration not stated) | inconclusive: 0.355 µM [inhibitor, full curve, poor fit] |

Additional entries

| Structure (SMILES) | Potency |
| --- | --- |
| Cc1nn(-c2ccccc2)c(Cl)c1C1C(C#N)=C(N)Oc2n[nH]c(C)c21 (configuration not stated) | inactive |
| Cc1ccc(C)c(N(CC(=O)NC2CCCC2)C(=O)c2csnn2)c1 | inconclusive: 35.5 µM [inhibitor, single point] |
| CCOc1ccc(Cl)cc1C1CC(=O)Nc2cc(OC)c(OC)c(OC)c21 (configuration not stated) | inactive |
| Cn1cc(/C=C2\SC(=O)N(c3ccc(O)cc3)C2=O)c2ccccc21 | inconclusive: 35.5 µM [inhibitor, single point] |
| COCCCn1c(O)c(/C=C2\N=C(C#N)C(=Nc3ccc(C)cc3)O2)sc1=S | inconclusive: 5.62 µM [inhibitor, single point] |
| CCc1cc(C(=O)N=Nc2c(O)[nH]c3c(Br)cc(Br)cc23)c2ccccc2n1 | inconclusive: 35.5 µM [inhibitor, single point] |
| CC(=Nc1ccccc1O)c1sc2ccccc2c1O | inconclusive: 15.8 µM [inhibitor, partial curve, poor fit] |
| Cc1ccc(C(C)C)c(OC/C(O)=C(\C#N)c2nc3ccccc3[nH]2)c1 | inconclusive: 35.5 µM [inhibitor, single point] |
| CCOc1ccc(CC(C(N)=O)C(N)=O)cc1 | inconclusive: 5.62 µM [inhibitor, single point] |
| Nc1c(C(=O)c2ccccc2)sc2nsc(SCCN3CCCC3)c12 | inconclusive: 3.98 µM [inhibitor, partial curve, poor fit] |
| O=C(NCCCN1CCCC1=O)C1CCN(S(=O)(=O)N2CCOCC2)CC1 | inconclusive: 5.62 µM [inhibitor, single point] |
| CCSc1nnc(NC(=O)C2Cc3ccccc3CN2S(=O)(=O)CC)s1 (configuration not stated) | inconclusive: 15.8 µM [inhibitor, single point] |
| Cc1cc(C)nc(/N=c2/ssnc2Cl)c1 | inconclusive: 6.31 µM [inhibitor, single point] |
| CCCn1c(NC(=S)Nc2ccccc2)nc2ccccc21 | inactive |
| CCN(CC)S(=O)(=O)c1ccc2oc(Nc3ccccc3)nc2c1 | inconclusive: 6.31 µM [inhibitor, single point] |
| Cc1ccccc1C=O | inactive |
| COc1ccccc1N1CCN(C(=O)c2ccc(Nc3nc4ccccc4n4nnnc34)cc2)CC1 | inconclusive: 20 µM [inhibitor, single point] |
| Cc1c(C(=O)Oc2cccc3cccnc23)oc2ccccc12 | inconclusive: 5.62 µM [inhibitor, single point] |
| O=C(Nc1cccc(Cl)c1)c1cc(N=Nc2ccc([N+](=O)[O-])cc2Cl)ccc1O | inactive |
| CN(C)CCNC(=O)c1csc(Nc2cccc3ccccc23)n1 | inactive |
| N#C/C(=C/c1ccncc1)c1nc2ccccc2s1 | inconclusive: 12.6 µM [inhibitor, partial curve, poor fit] |
| Cc1ccc(NC(=O)c2ccc(NCC3CCCO3)c([N+](=O)[O-])c2)cc1Cl (configuration not stated) | active: 11.2 µM |
| CN1C2CCC1/C(=C/c1cccn1C)C(=O)/C2=C\c1cccn1C | active: 22.4 µM |
| COc1ccc([C@H]2CC(=O)C=C(c3ccc(NC(C)=O)cc3)C2)cc1OC | inactive |

| Structure (SMILES) | Potency |
| --- | --- |
| O=C(NC(=S)NCc1ccco1)c1ccc(Br)cc1 | inactive |
| O=C(CSc1nc2ccccc2c(=O)[nH]1)Nc1nc(-c2ccc(Br)cc2)cs1 | inconclusive: 7.94 µM [inhibitor, partial curve] |
| COc1ccc(/C=C2/N=C(SCC(=O)Nc3cc(C)on3)N(c3ccccc3)C2=O)cc1 | inconclusive: 15.8 µM [inhibitor, partial curve, poor fit] |
| O=C(NCCN1CCN(c2ccccc2)CC1)c1ccc2c(c1)[nH]c(=S)n1c3ccccc3nc21 | inconclusive: 6.31 µM [inhibitor, partial curve, poor fit] |
| Cc1cc(NC(=O)Nc2cccc(C(F)(F)F)c2)n(C)n1 | inactive |
| CN1CC(=O)Nc2cc(C(=O)O)ccc21 | inactive |
| Cc1ccc(CN2CCN(C(=O)c3cccc4ccccc34)CC2)cc1 | inactive |
| COc1ccc2nc(Nc3sc4c(c3C(N)=O)CCCC4)sc2c1 | inconclusive: 10 µM [inhibitor, partial curve] |
| COc1cc([C@@H]2[C@H]3CN(C)CC=C3C(C#N)=C(N)C2(C#N)C#N)cc2c1OCO2 | inactive |
| Cc1c(Cl)cccc1-c1ccc(/C=C(\C#N)c2nc3ccccc3[nH]2)o1 | active: 12.6 µM |
| O=C(COC(=O)c1cc(Br)ccc1O)NCC1CCCO1 (configuration not stated) | inconclusive: 0.794 µM [inhibitor, full curve, poor fit] |
| CCOc1c2ccc(C(=O)NCc3ccc(OC)cc3)cc2nn1CCOC | inconclusive: 5.62 µM [inhibitor, single point] |
| CCCCn1c(N)c(N(CC(C)C)C(=O)c2oc3ccc(Br)cc3c2C)c(=O)[nH]c1=O | inconclusive: 6.31 µM [inhibitor, single point] |
| Cc1ccc2oc(C(=O)NC3CCS(=O)(=O)C3)cc(=O)c2c1 (configuration not stated) | inactive |
| CC(=O)O[C@]1(C(C)=O)CC[C@H]2[C@@H]3C[C@H](C)C4=CC(=O)CC[C@]4(C)[C@H]3CC[C@@]21C | inactive |
| C/C(=N/Nc1ccnc2cc(Cl)ccc12)c1ccc(N)cc1 | inconclusive: 35.5 µM [inhibitor, single point] |
| COc1cc2cnc(-c3ccccc3)c(-c3ccc([N+](=O)[O-])cc3)c2cc1OC | inactive |
| COc1ccc(C2CC(c3ccccc3)=NN2S(=O)(=O)c2ccccc2)cc1 (configuration not stated) | inconclusive: 28.2 µM [inhibitor, single point] |
| Cc1cc(C)c(C(=O)C2OC(=O)C(C)(C)C(=O)C2(C)C)c(C)c1 (configuration not stated) | inactive |
| Cc1ccccc1NC(=O)c1ccccc1-c1ccccc1 | inconclusive: 35.5 µM [inhibitor, partial curve, poor fit] |
| C=CCNC(=S)Nc1sc2c(c1C(N)=O)CCCC2 | inconclusive: 15.8 µM [inhibitor, single point] |
| CCS(=O)(=O)C1=NSC2=NC(=O)/C(=C\c3ccc(OC(=O)c4ccco4)c(OC)c3)C(=N)N21 | inconclusive: 20 µM [inhibitor, partial curve, poor fit] |
| O=C(CCCCCn1c(=O)c2sccc2n(Cc2ccc(Cl)cc2)c1=O)NCc1ccc2c(c1)OCO2 | inconclusive: 8.91 µM [inhibitor, partial curve, poor fit] |
| NC(=O)c1c(NC(=O)c2cc3ccccc3o2)sc2c1CCC2 | inconclusive: 11.2 µM [inhibitor, single point] |

Reference: PubChem BioAssay AID602313 (National Center for Advancing Translational Sciences (NCATS), 2012)
